Assay results: patent US20240425571A1, “GLYCOPROTEIN A REPETITIONS PREDOMINANT (GARP)-BINDING ANTIBODIES AND USES THEREOF” (OHIO STATE INNOVATION FOUNDATION, priority 2021, published 2024)
No constants are given. Whether binding was seen depends on the method and setting. Some binding calls cover weakened binding; strength is not graded here.

The chains behind the UniProt entries cited, without tags or fusion partners. Where a name states a change or a piece, a line headed by the entry shows the natural chain unless it says otherwise. Residues count along the entry.
UniProt Q14392, residues 20-627: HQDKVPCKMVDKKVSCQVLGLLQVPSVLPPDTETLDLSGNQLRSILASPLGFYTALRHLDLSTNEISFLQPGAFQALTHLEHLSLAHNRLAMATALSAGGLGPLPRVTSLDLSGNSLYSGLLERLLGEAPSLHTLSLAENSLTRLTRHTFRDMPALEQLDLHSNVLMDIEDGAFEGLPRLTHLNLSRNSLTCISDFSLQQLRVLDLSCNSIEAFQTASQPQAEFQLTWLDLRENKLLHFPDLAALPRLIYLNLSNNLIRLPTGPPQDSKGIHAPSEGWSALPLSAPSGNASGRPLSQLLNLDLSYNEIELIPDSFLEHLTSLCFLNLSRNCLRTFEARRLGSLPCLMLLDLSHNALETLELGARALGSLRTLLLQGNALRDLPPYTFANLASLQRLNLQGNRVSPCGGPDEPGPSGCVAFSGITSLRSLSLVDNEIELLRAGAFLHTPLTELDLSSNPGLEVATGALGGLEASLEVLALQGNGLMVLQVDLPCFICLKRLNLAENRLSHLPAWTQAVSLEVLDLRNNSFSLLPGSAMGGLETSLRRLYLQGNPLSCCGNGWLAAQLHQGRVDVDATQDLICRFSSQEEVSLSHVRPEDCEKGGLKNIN
UniProt P01137: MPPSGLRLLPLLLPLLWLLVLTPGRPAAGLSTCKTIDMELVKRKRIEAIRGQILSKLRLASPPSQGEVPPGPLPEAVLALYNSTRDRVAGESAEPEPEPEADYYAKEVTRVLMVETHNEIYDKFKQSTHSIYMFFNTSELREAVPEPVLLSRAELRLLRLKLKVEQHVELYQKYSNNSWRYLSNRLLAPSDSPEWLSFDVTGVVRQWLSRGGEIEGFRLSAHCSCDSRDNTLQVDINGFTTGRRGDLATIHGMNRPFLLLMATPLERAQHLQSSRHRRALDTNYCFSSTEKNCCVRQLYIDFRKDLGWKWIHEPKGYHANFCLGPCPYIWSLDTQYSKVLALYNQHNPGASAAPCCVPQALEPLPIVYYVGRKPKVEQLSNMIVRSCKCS

Tests used:
[1] = target: human GARP (antigen, construct not stated) (human) (UniProt Q14392); experiment: Gator label-free kinetics
[2] = target: human GARP (antigen, construct not stated) (human) (UniProt Q14392); experiment: summary of Example 6
[3] = target: T1, membrane-bound GARP-LTGFβ complex (human GARP with latent TGFβ1) (human) (UniProt Q14392+P01137); experiment: flow cytometry on human platelets (drawn table)
[4] = target: T1, membrane-bound GARP-LTGFβ complex (human GARP with latent TGFβ1) (human); experiment: flow cytometry on 293 cells transfected with hGARP and TGFβ1 (GARP-LAP complex)

binding [1]	binding [2]	binding [3]	binding [4]	Binder
binds				huPIIO-1VH1VL1 (antibody, V domains shown) VH: QVQLQESGPGLVKPSQTLSLTCTVSGYSITSDYAWNWIRQFPGNKLEWMGYISYSGSTSYTPSLKSRVTISRDTSKNHFSLKLSSVTAADTAVYYCAKSGGDYYGSSSYWYFDVWGQGTMVTVSS VL: DIVLTQSPSSLAVSLGERATMNCKSSQSLLNSRSQKNYLAWYQQKPGQPPKLLIYGASTRGSGVPDRFSGSGSGTDFTLTISSLQAEDVAVYYCQNDHSYPFTFGQGTKLEIKR
binds				huPIIO-1VH2VL1 (antibody, V domains shown) VH: QVQLQESGPGLVKPSQTLSLTCTVSGYSITSDYAWNWIRQFPGNKLEWMGYISYSGSTSYTPSLKSRITISRDTSKNHFFLKLSSVTAADTAVYYCAKSGGDYYGSSSYWYFDVWGQGTMVTVSS VL: DIVLTQSPSSLAVSLGERATMNCKSSQSLLNSRSQKNYLAWYQQKPGQPPKLLIYGASTRGSGVPDRFSGSGSGTDFTLTISSLQAEDVAVYYCQNDHSYPFTFGQGTKLEIKR
binds	binds			huPIIO-1VH1VL2 (antibody, V domains shown) VH: QVQLQESGPGLVKPSQTLSLTCTVSGYSITSDYAWNWIRQFPGNKLEWMGYISYSGSTSYTPSLKSRVTISRDTSKNHFSLKLSSVTAADTAVYYCAKSGGDYYGSSSYWYFDVWGQGTMVTVSS VL: DIVLTQSPSSLAVSLGERVTMNCKSSQSLLNSRSQKNYLAWYQQKPGQPPKLLIYGASTRGSGVPDRFSGSGSGTDFTLTISSVQAEDVAVYYCQNDHSYPFTFGQGTKLEIKR
		binds	binds	5C5 (antibody, V domains shown) VH: EVKLVESGGGSVKPGGSLKLSCAASGFTFSNYVMSWVRQTPEKRLEWVATISSGGSYTYYPDSVKGRLTISRDNAKNTLYLQMSSLRSEDTAMYYCARGYDNGDYVMDYWGQGTSVTVSS VL: DIVLTQSPASLAVSLGQRATISCRASESVDTYGNSFMHWYQQIPGQPPKVLIYRASNLESGIPARFSGSGSRTDFTLTINPVEAGDVATYYCQQTNEHPPTFGGGTKLEIK
